Reference: patent US8288423B2, “FXa inhibitors with cyclic amidines as P4 subunit, processes for their preparations, and pharmaceutical compositions and derivatives thereof” (Legochem Bioscience Ltd., priority 2007, dated 2012)
For at least one compound, name, drawing or mass did not settle the structure.

Tests used:
Citrated plasma = assay: Measurement of PT (prothrombin time) in citrated plasma; type: biochemical; conditions: STA-Neoplastine, 37° C., unit not given (2×PT value)
Description: The effect of oxazolidinone derivatives with cyclic amidines represented by Chemical Formula (1) according to the invention on blood coagulation was compared by measuring PT (prothrombin time) and aPTT (activated Partial Thromboplastin Time). The procedure of measurement is described below. Citrated plasma was purchased from Daejeon-Chungnam Blood Institute (located at Daejeon, Korea). A compound solution (5 μL) according to the invention (in a various concentration gradient, 5% DMSO solution) was added to the plasma ([…]), and the reaction was carried out at 37° C. for 5 minutes. STA-Neoplastine (Diagnostica Stago) (100 μL) was then added thereto, and the duration for plasma coagulation was measured. The duration for plasma coagulation is determined as the point when the absorbance at 340 nm reaches 0.1.

plasma = assay: Measurement of aPTT (activated partial thromboplastin time) in plasma; type: biochemical; design: unit not given here; conditions: STA-PTT, CaCl2, 37° C., unit not given
Description: The effect of oxazolidinone derivatives with cyclic amidines represented by Chemical Formula (1) according to the invention on blood coagulation was compared by measuring PT (prothrombin time) and aPTT (activated Partial Thromboplastin Time). The procedure of measurement is described below. A solution (5 μL) of the oxazolidinone derivative with cyclic amidine group represented by Chemical Formula (1) according to the invention (in a various concentration gradient, 5% DMSO solution) was added to the plasma ([…]), and the reaction was carried out at 37° C. for 2 minutes. STA-PTT (Diagnostica Stago) (50 μL) was then added thereto. After the reaction at 37° C. for additional 5 minutes, 25 mM CaCl2 (50 μL) was added thereto, and the duration for plasma coagulation was measured. The duration for plasma coagulation was determined as the point when the absorbance at 340 nm reaches 0.1.

## CCN1CCN=C1c1ccc(N2C[C@H](CNC(=O)c3ccc(Br)s3)OC2=O)cc1 [Compound 109, 5-bromothiophene-2-carboxylic acid {(S)-3-[4-(1-ethyl-4,5-dihydro-1H-imidazol-2-yl)-phenyl]-2-oxo-oxazolidin-5-ylmethyl}-amide]
Citrated plasma
  PT: 0.05
plasma
  APTT: 0.19
